# Data source: PubChem BioAssay AID1159578 (Peter MacCallum Cancer Centre, 2015)
# Assay: 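siRNA pools altering how lymphatic endothelial cells close a scratch wound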 (primary screen)
# System: human lymphatic endothelial cells
# Reagent: siRNA pool against human genes, 40 nM
# Timing: 48 h after transfection
# Measurement: 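High-content imaging of dye-stained cells in a scratch assay measures filled wound area and nuclei per well; duplicate means given as ratio to mock and robust z-score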
# Reading the numbers: migration robust z-score: higher = faster migration into the scratch; migration relative to mock: higher = more scratch area covered than mock; nuclei per well: higher = more cells in the well
# Rule for the call: 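Pools averaging fewer than 3300 nuclei are never called; remaining pools count as changed when migration robust z lies outside -2 to 2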
# Calls: active = migration changed; inactive = no migration change, or too few cells
# Shown is a random part of about 18,000 deposited reagents. About 1,030 of them (5.7%) count as active. 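Inactive calls also include pools with fewer than 3300 nuclei, whose migration was not assessed.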 Raw values are not corrected between plates.
Target gene,migration robust z-score,migration class with cell-count check,migration relative to mock,"nuclei per well, duplicate mean",outcome
ADSL,-0.18,migration z between -2 and 2; enough cells,0.84,6824,inactive
CCDC71L,0.18,migration z between -2 and 2; enough cells,0.94,5894,inactive
SEC24B,0.68,migration z between -2 and 2; enough cells,1.06,5772,inactive
HCN4,-0.05,migration z between -2 and 2; enough cells,0.8,5448,inactive
AGXT2,-0.86,migration z between -2 and 2; enough cells,0.64,5970,inactive
GLT8D1,0.99,migration z between -2 and 2; enough cells,1,6403,inactive
DVL3,0.55,migration z between -2 and 2; enough cells,1.02,6308,inactive
TTC32,-0.14,migration z between -2 and 2; enough cells,0.85,5294,inactive
BCAP31,-0.36,migration z between -2 and 2; enough cells,0.79,6476,inactive
MTA2,-0.74,migration z between -2 and 2; enough cells,0.7,4812,inactive
SMIM43,-1.48,migration z between -2 and 2; enough cells,0.5,6222,inactive
PRADC1,0.46,migration z between -2 and 2; enough cells,0.9,5252,inactive
KLHL10,-0.44,migration z between -2 and 2; enough cells,0.77,6845,inactive
ERCC8,1.27,migration z between -2 and 2; enough cells,1.05,5418,inactive
GPX5,0.83,migration z between -2 and 2; enough cells,0.97,5750,inactive
NXF1,-4.02,migration z below -2; enough cells,0.03,4234,active
PITX2,0.24,migration z between -2 and 2; enough cells,0.85,5336,inactive
ZSCAN22,-1.45,migration z between -2 and 2; enough cells,0.51,5870,inactive
TRIM73,-1.04,migration z between -2 and 2; enough cells,0.6,5602,inactive
PJA1,1.5,migration z between -2 and 2; enough cells,1.09,5134,inactive
RBM5,-0.84,migration z between -2 and 2; enough cells,0.67,4830,inactive
FRMD4A,-0.65,migration z between -2 and 2; enough cells,0.72,6132,inactive
KLK15,-0.13,migration z between -2 and 2; enough cells,0.78,5360,inactive
CT45A6,0.56,migration z between -2 and 2; enough cells,1.03,4522,inactive
TRPM8,-1.01,migration z between -2 and 2; enough cells,0.61,5008,inactive
MFAP3,-0.23,migration z between -2 and 2; enough cells,0.82,5664,inactive
OR2L8,0.02,migration z between -2 and 2; enough cells,0.9,5748,inactive
FAM178B,-0.17,migration z between -2 and 2; enough cells,0.84,5388,inactive
RALGPS1,0.96,migration z between -2 and 2; enough cells,1.14,6860,inactive
TAP2,0.83,migration z between -2 and 2; enough cells,0.96,5540,inactive
TNPO2,-0.57,migration z between -2 and 2; enough cells,0.7,6040,inactive
FAM24B,-0.54,migration z between -2 and 2; enough cells,0.75,5877,inactive
FEZF1,0.22,migration z between -2 and 2; enough cells,0.94,6728,inactive
RMND5B,0.94,migration z between -2 and 2; enough cells,1.13,6342,inactive
ABHD2,0.49,migration z between -2 and 2; enough cells,0.9,5624,inactive
KRTAP4-5,0.6,migration z between -2 and 2; enough cells,1.04,5056,inactive
TAFAZZIN,-0.8,migration z between -2 and 2; enough cells,0.65,6191,inactive
GGCT,-1.04,migration z between -2 and 2; enough cells,0.62,5696,inactive
USP13,0.76,migration z between -2 and 2; enough cells,0.95,5618,inactive
SCAF11,0.55,migration z between -2 and 2; enough cells,1.02,5396,inactive
ARLN,-0.47,migration z between -2 and 2; enough cells,0.76,3647,inactive
TLE4,0.29,migration z between -2 and 2; enough cells,0.86,4728,inactive
NKTR,0.11,migration z between -2 and 2; enough cells,0.92,7306,inactive
ETFA,-0.94,migration z between -2 and 2; enough cells,0.62,3941,inactive
KRTAP10-7,0.04,migration z between -2 and 2; enough cells,0.9,7270,inactive
HNF1B,1.43,migration z between -2 and 2; enough cells,1.08,5472,inactive
PCDHB15,-0.26,migration z between -2 and 2; enough cells,0.82,5044,inactive
ZNF787,-1.02,migration z between -2 and 2; enough cells,0.62,5492,inactive
TBX4,-0.05,migration z between -2 and 2; enough cells,0.8,4004,inactive
PCLAF,-0.39,migration z between -2 and 2; enough cells,0.78,5146,inactive
PAX9,-0.24,migration z between -2 and 2; enough cells,0.76,3734,inactive
SLC10A2,0.24,migration z between -2 and 2; enough cells,0.85,5003,inactive
CFAP52,-1.08,migration z between -2 and 2; enough cells,0.6,5763,inactive
TMEM121B,-2.48,migration z below -2; enough cells,0.24,4518,active
RPL37,0.74,migration z between -2 and 2; enough cells,1.08,3928,inactive
MAGOH,0.58,migration z between -2 and 2; enough cells,1.04,6821,inactive
SIPA1,-0.18,migration z between -2 and 2; enough cells,0.84,4978,inactive
KRTAP4-2,-1.05,migration z between -2 and 2; enough cells,0.61,5596,inactive
CLDN2,-0.76,migration z between -2 and 2; enough cells,0.69,5312,inactive
CCDC80,0.12,migration z between -2 and 2; enough cells,0.92,5679,inactive
EIF3M,-1.36,migration z between -2 and 2; enough cells,0.52,5946,inactive
RYR1,-1.66,migration z between -2 and 2; enough cells,0.48,5564,inactive
SDHB,0.8,migration z between -2 and 2; enough cells,0.96,6537,inactive
SPTAN1,-1.54,migration z between -2 and 2; enough cells,0.5,5540,inactive
SH3BP5L,-1.36,migration z between -2 and 2; enough cells,0.53,6072,inactive
IQCF2,1.56,migration z between -2 and 2; enough cells,1.29,5694,inactive
LRIG2,-0.84,migration z between -2 and 2; enough cells,0.67,4280,inactive
TK1,0.01,migration z between -2 and 2; enough cells,0.88,5398,inactive
SLCO2A1,0.94,migration z between -2 and 2; enough cells,0.98,6610,inactive
RFLNB,-1.68,migration z between -2 and 2; enough cells,0.45,6807,inactive
MPZL1,1.92,migration z between -2 and 2; enough cells,1.38,5592,inactive
EOLA1,-1.95,migration z between -2 and 2; enough cells,0.37,4414,inactive
UBE2A,1.5,migration z between -2 and 2; enough cells,1.09,4792,inactive

7 neighbouring records already listed, for reference:
Target gene,migration robust z-score,migration class with cell-count check,migration relative to mock,"nuclei per well, duplicate mean",outcome
SIPA1,-0.18,migration z between -2 and 2; enough cells,0.84,4978,inactive
KRTAP4-2,-1.05,migration z between -2 and 2; enough cells,0.61,5596,inactive
CLDN2,-0.76,migration z between -2 and 2; enough cells,0.69,5312,inactive
CCDC80,0.12,migration z between -2 and 2; enough cells,0.92,5679,inactive
EIF3M,-1.36,migration z between -2 and 2; enough cells,0.52,5946,inactive
RYR1,-1.66,migration z between -2 and 2; enough cells,0.48,5564,inactive
SDHB,0.8,migration z between -2 and 2; enough cells,0.96,6537,inactive
